The target in this experiment is APOL1 (Homo sapiens, UniProt O14791). Put plainly: MultiTox-Fluor Multiplex Cytotoxicity Assay, tet-inducible APOL1 T-REx-HEK293 cells (G0, G1 or G2 clone not specified for Table 20). On the procedure:
Human embryonic kidney (HEK293) cell lines containing a tet-inducible expression system (T-REx™; Invitrogen, Carlsbad, CA) and Adeno-associated virus site 1 pAAVS1-Puro-APOL1 G0 or pAAVS1-Puro-APOL1 G1 or pAAVS1-Puro-APOL1 G2 Clones G0 DC2.13, G1 DC3.25, and G2 DC4.44 were grown in a T-225 flask at ˜90% confluency in cell growth media (DMEM, 10% Tet-free FBS, 2 mM L-glutamine, 100 Units/mL penicillin-streptomycin, 5 μg/mL blasticidin S HCl, 1 μg/mL puromycin dihydrochloride). Cells were washed with DPBS and then trypsinized to dissociate from the flask. Media was used to quench the trypsin, cells were then pelleted at 200 g and resuspended in fresh cell assay media (DMEM, 2% Tet-free FBS, 2 mM L-glutamine, 100 Units/mL penicillin-streptomycin). Cells were counted and diluted to 1.17×10^6 cells/mL. 20 μL of cells (23,400/well) were dispensed in every well of a 384-well Poly-D-Lysine coated plate using the Multidrop dispenser. The plates were then incubated at room temperature for one hour.
Tetracycline is needed to induce APOL1 expression. 1 mg/mL tet stock in water was diluted to 250 ng/mL (5×) in cell assay media. 60 μL of cell assay media (no tet control) was dispensed in columns 1 and 24, and 60 μL of 5× tet in 384-PP-round bottom plate was dispensed in columns 2 to 23 with the Multidrop dispenser.
Assay ready plates from the Global Compound Archive were ordered using template 384_APOL1Cell_DR10n2_50 uM_v3. Compounds were dispensed at 200 nL in DMSO. The final top concentration was 10 μM with a 10 point 3-fold dilution in duplicate in the MultiTox assay.
20 μL was transferred from the 5× tet plate to the ARP and mixed, then 5 μL of 5× tet and the compounds were transferred to the cell plate and mixed using the Bravo. The cell plate was placed in the humidified 37° C. […]
The MultiTox-Fluor Multiplex Cytotoxicity Assay was performed in accordance with the manufacturer's protocol. […] The cell viability (excitation: 400 nm, emission: 486 nm) and cytotoxicity (excitation: 485 nm, emission: 535 nm) were read using the EnVision plate reader. […] Data was exported and analyzed in Genedata. […]

Protein sequences, listed by entry. Tags and fused reporters are not part of them.
UniProt O14791, whole entry: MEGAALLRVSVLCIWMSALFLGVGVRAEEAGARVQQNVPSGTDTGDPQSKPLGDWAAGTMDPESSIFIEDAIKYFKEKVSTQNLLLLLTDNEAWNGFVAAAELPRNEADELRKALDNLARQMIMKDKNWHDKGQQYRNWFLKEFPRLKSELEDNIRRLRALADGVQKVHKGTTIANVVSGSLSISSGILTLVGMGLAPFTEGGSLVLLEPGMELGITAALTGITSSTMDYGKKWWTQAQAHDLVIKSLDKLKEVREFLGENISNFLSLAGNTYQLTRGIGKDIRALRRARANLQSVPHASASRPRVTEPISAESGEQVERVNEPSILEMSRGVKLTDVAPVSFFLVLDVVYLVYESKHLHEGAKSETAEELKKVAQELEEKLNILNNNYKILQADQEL

[1] abbreviates: read-out: IP50 (i.e., IC50 for cell proliferation), tet-induced, 24 hours with compound, ratio of dead to live cells.

Where two headings read alike, the source gives them in different places. The match of structure and compound is tentative.

Take `Cc1cccc2c1CCOC21CCN(Cc2cnn(C)c2)CC1`: the IC50 under setting [1] is over 500 nM. Turning to `CC1CC2(CCN1Cc1cnn(CCS(C)(=O)=O)c1)C(=O)Nc1ccc(Cl)cc12` (stereo not drawn), the IC50 (read-out: IP50 (i.e., IC50 for cell proliferation), tet-induced, 24 hours with compound, ratio of dead to live cells, tested form: TFA) was under 50 nM. As for `Cc1cc(F)c2c(c1)C1(CCN(Cc3cnn(CCS(C)(=O)=O)c3)CC1)C(=O)N2C` [82], under setting [1], the IC50 is over 500 nM.

The record behind these values is patent US20250195483A1, “SPIRO PIPERIDINE DERIVATIVES AS INHIBITORS OF APOL1 AND METHODS OF USING SAME” (Vertex Pharmaceuticals Incorporated, priority 2022, published 2025).
